Reference: paper PMC11849937
Results are given in words; binding and its absence hold for the method and conditions named. In cells and extracts the contact can be indirect. Some binding calls cover weakened binding; strength is not graded here.

Amino acid sequences for entries named in this document (tags omitted).
UniProt Q8N8Y2: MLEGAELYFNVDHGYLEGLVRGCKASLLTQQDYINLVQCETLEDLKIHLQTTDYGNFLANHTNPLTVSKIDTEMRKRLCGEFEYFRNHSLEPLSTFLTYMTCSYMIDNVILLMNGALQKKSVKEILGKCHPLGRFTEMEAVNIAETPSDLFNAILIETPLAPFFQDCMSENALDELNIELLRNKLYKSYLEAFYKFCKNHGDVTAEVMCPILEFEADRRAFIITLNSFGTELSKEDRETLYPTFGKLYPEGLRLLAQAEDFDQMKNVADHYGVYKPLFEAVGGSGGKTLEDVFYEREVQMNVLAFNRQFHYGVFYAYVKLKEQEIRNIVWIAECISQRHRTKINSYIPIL
UniProt P51149: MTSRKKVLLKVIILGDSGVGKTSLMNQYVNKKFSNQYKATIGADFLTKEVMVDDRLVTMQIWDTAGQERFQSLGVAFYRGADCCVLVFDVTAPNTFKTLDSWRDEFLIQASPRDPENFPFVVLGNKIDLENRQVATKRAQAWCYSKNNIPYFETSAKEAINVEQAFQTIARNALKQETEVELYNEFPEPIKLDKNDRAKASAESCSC

How the values were obtained:
[1] = molecular target: Flag-tagged ATP6V0D2 (ATPase H+ transporting V0 subunit d2) (UniProt Q8N8Y2); assay: co-IP; 786O cells stably expressing flag-ATP6V0D2 immunoprecipitated by beads; blots for endogenous VPS41, VPS39 and RAB7
[2] = molecular target: FLAG-tagged ATP6V0D2 (in 293T cells) (UniProt Q8N8Y2); assay: co-IP; 293T cells cotransfected with FLAG-tagged ATP6V0D2, His-tagged RAB7 and His-tagged VPS41

Row | binding [1] | binding [2] | Substance
1 | binds | – | RAB7 (endogenous) (from UniProt P51149 1-207)
2 | – | binds | His-tagged RAB7 (in 293T cells) (from UniProt P51149 1-207)
